Data as given in PubChem BioAssay AID1508597 (Cure First, 2020).
This is a random part of the about 2,100 reagents, under one of the conditions tested. 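Calls flag viability under 80% in either arm, not effects specific to rucaparib; the reference for percent is not stated.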 A number with no mark means an inactive call. A reagent listed more than once was tested more than once; the source does not tell the runs apart. Not stated in the record: the 100% reference.

- Assay: 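Genes whose silencing sensitises or protects ovarian cancer cells against rucaparib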 (primary screen)
- System: human ovarian carcinoma lines grown from tumours: OCI-P5x (papillary serous) and OCI-C5x (clear cell)
- Reagents: siRNA pool against human genes, 1.25 pmol siRNA per well
- Timing: 72 h or 96 h, depending on the cell culture
- Challenge: rucaparib 20 µM (about IC30) or vehicle, present until read-out
- Rucaparib or vehicle: Vehicle
- Cell line: OCI-P5x (serous)
- Detection: 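ATP luminescence measured at 72 or 96 h according to the culture, then normalised and expressed as percent viability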
- Scale: viability, normalised: higher = more viable cells remaining
- Hit rule: 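a well counts as a hit if its normalised viability is under 80 percent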
- Calls: active = viability under 80%; inactive = viability 80% or more

gene symbol | technical replicate | viability, normalised (%)
NKX2-3 | 1 | 42.5 (active)
NKX2-3 | 2 | 38.2 (active)
NKX2-3 | 3 | 55.2 (active)
DDX3Y | 1 | 30.1 (active)
DDX3Y | 2 | 35.3 (active)
DDX3Y | 3 | 47.8 (active)
TP53BP1 | 1 | 96.5
TP53BP1 | 1 | 100
TP53BP1 | 2 | 105
TP53BP1 | 2 | 88.1
TP53BP1 | 3 | 76.3 (active)
TP53BP1 | 3 | 107
UCK1 | 1 | 70.7 (active)
UCK1 | 2 | 58.7 (active)
UCK1 | 3 | 70.2 (active)
NEIL1 | 1 | 99.7
NEIL1 | 1 | 55.2 (active)
NEIL1 | 2 | 103
NEIL1 | 2 | 59.6 (active)
NEIL1 | 3 | 79.3 (active)
NEIL1 | 3 | 110
TNRC6A | 1 | 83.2
TNRC6A | 2 | 70.5 (active)
TNRC6A | 3 | 89.7
DNAJC2 | 1 | 59.2 (active)
DNAJC2 | 2 | 58.8 (active)
DNAJC2 | 3 | 60.9 (active)
BRAF | 1 | 56.4 (active)
BRAF | 2 | 58.8 (active)
BRAF | 3 | 52.6 (active)
ZKSCAN2 | 1 | 78.3 (active)
ZKSCAN2 | 2 | 88.7
ZKSCAN2 | 3 | 82.2
PLCG1 | 1 | 87.4
PLCG1 | 2 | 75.1 (active)
PLCG1 | 3 | 67.9 (active)
BMP2K | 1 | 75.4 (active)
BMP2K | 2 | 49.9 (active)
BMP2K | 3 | 60.6 (active)
XRCC5 | 1 | 74 (active)
XRCC5 | 2 | 73.6 (active)
XRCC5 | 3 | 76.6 (active)
RHO | 1 | 45.9 (active)
RHO | 2 | 46.4 (active)
RHO | 3 | 66.1 (active)
TGM3 | 1 | 91.5
TGM3 | 2 | 94.4
TGM3 | 3 | 88.2
DNER | 1 | 74.1 (active)
DNER | 2 | 65.2 (active)
DNER | 3 | 79.7 (active)
PTP4A2 | 1 | 65.9 (active)
PTP4A2 | 2 | 81
PTP4A2 | 3 | 91.4
GTF2H2 | 1 | 70 (active)
GTF2H2 | 2 | 69.3 (active)
GTF2H2 | 3 | 76.5 (active)

Records above whose gene name starts with B or b:
gene symbol | technical replicate | viability, normalised (%)
BRAF | 1 | 56.4 (active)
BRAF | 2 | 58.8 (active)
BRAF | 3 | 52.6 (active)
BMP2K | 1 | 75.4 (active)
BMP2K | 2 | 49.9 (active)
BMP2K | 3 | 60.6 (active)
